# Some of the results follow.
# Sequences of proteins named here, by UniProt entry; tags and fusion partners are left off. A change or cut given only in a name is not applied to a line headed by its entry.
# UniProt Q7Z460: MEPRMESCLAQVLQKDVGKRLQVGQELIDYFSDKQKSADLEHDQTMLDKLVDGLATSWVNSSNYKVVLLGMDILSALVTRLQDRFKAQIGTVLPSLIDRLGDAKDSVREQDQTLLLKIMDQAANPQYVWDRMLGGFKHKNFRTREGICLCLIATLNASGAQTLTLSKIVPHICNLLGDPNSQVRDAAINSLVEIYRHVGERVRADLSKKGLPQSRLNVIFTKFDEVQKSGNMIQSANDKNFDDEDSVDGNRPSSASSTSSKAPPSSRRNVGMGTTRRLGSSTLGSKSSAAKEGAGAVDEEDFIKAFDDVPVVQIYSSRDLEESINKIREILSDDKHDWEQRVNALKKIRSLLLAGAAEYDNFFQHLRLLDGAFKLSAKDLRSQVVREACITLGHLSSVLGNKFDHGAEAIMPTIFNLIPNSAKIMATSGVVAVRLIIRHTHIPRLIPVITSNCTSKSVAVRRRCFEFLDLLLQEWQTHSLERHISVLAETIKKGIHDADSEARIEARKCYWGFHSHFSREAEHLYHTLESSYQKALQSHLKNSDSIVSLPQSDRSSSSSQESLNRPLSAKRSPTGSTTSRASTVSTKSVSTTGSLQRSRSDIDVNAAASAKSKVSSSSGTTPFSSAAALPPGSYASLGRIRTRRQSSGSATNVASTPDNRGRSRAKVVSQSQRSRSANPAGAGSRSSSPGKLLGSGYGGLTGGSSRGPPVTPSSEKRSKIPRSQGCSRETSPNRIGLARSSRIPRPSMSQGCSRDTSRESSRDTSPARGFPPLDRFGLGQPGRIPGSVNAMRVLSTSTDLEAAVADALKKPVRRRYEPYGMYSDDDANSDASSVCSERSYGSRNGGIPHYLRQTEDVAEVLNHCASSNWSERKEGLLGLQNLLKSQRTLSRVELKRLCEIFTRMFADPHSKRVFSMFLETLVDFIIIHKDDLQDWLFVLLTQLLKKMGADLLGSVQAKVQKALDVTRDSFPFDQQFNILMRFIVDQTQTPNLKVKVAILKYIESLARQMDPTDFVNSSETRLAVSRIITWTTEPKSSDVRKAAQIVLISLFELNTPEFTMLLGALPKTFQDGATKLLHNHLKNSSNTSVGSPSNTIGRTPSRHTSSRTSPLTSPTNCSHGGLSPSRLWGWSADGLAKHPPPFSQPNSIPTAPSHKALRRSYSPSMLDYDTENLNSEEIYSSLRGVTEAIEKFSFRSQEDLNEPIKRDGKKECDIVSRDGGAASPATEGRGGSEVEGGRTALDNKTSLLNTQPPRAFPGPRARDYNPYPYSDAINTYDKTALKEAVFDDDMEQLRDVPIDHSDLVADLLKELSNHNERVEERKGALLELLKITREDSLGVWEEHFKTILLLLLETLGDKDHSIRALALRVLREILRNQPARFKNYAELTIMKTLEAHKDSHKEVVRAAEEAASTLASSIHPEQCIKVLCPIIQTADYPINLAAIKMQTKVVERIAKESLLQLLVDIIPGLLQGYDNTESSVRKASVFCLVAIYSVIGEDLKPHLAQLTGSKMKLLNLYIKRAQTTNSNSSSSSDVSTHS
# UniProt Q96BQ5: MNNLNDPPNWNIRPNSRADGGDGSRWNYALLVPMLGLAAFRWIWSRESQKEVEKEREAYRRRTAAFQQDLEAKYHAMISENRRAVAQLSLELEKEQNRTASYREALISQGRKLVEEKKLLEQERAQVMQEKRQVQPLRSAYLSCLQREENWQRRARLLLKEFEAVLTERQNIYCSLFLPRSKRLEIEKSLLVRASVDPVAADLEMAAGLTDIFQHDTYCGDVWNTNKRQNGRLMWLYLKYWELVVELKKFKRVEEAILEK
# UniProt Q96ER9: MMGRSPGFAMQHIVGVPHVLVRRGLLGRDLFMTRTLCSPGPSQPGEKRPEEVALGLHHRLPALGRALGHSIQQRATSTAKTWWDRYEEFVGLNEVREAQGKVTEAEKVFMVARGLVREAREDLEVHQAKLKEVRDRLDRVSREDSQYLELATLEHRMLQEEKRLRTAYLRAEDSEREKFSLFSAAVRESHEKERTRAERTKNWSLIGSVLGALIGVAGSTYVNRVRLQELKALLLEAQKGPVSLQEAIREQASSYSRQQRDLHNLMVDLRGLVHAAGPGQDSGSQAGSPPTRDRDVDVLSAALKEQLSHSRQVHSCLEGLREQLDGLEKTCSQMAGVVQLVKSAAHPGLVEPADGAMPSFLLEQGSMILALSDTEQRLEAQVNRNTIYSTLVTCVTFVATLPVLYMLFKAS
# UniProt Q9NXV6: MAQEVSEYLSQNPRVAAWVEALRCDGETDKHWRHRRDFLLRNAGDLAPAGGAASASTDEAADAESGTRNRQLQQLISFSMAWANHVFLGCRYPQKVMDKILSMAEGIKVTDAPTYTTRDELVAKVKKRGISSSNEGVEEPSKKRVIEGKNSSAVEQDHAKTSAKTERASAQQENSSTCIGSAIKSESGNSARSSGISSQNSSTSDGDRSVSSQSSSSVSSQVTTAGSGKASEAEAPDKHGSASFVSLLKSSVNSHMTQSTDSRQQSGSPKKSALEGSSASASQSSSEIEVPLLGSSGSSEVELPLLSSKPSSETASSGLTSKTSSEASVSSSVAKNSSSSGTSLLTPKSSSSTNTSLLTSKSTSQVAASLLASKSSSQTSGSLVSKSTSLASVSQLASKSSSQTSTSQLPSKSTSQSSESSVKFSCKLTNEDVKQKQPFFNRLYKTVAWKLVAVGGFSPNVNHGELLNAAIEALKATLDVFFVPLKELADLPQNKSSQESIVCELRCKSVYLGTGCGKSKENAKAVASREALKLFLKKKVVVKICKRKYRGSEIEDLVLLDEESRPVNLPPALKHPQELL
# UniProt O15182: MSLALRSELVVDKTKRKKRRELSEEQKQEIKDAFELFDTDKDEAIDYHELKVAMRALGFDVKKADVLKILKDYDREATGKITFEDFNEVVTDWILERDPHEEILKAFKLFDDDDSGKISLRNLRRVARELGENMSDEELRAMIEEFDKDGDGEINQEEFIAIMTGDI
# UniProt Q96MT8: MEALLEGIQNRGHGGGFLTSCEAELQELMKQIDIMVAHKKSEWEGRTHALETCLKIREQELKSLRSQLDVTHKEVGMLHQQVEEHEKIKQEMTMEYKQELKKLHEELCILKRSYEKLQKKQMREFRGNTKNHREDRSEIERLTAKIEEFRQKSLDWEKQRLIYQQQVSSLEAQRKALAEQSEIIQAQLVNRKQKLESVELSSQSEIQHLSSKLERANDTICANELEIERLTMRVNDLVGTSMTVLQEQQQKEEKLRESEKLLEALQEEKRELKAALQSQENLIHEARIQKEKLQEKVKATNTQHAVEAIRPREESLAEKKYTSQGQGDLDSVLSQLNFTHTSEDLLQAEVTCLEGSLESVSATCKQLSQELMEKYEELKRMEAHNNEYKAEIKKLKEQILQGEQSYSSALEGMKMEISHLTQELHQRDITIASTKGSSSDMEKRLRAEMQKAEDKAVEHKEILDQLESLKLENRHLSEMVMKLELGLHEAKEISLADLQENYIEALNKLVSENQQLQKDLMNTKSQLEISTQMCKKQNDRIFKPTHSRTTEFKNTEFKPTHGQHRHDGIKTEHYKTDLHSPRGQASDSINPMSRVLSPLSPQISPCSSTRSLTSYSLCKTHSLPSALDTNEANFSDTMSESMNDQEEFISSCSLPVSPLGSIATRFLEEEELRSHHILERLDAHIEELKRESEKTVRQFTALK
# UniProt O76071: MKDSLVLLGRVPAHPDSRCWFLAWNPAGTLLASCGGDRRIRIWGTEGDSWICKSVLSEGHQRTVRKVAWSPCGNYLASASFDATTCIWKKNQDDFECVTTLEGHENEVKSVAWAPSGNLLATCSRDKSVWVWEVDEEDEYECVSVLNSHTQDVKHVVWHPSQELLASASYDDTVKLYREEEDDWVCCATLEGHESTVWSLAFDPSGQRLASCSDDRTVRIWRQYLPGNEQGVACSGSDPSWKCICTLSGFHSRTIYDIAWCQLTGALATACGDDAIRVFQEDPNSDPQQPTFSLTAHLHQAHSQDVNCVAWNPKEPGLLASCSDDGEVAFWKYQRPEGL
# UniProt Q9NY25: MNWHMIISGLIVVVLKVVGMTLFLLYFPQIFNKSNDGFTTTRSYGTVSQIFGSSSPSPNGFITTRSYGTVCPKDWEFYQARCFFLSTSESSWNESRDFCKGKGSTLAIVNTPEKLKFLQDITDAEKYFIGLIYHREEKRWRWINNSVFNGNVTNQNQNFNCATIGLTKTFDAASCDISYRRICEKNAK
# UniProt Q16773: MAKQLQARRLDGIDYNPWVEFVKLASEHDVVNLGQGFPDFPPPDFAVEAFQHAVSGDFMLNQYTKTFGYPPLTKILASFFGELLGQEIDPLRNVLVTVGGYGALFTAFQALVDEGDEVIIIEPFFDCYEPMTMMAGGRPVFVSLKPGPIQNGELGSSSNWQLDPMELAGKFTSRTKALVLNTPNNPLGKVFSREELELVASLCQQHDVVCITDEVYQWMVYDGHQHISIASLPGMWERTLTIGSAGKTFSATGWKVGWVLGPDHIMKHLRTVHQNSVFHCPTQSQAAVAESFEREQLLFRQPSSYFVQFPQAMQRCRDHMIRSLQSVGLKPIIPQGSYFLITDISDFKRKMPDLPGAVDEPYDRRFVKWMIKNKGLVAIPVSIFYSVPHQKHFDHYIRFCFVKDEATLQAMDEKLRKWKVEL
# UniProt Q8TCZ2: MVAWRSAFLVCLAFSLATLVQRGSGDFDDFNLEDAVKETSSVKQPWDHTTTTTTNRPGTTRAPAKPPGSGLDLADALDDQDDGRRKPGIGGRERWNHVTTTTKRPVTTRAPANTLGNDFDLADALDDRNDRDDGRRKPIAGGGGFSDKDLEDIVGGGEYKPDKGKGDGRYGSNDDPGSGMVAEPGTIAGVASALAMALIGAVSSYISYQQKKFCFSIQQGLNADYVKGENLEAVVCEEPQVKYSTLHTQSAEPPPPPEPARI
# UniProt O75122: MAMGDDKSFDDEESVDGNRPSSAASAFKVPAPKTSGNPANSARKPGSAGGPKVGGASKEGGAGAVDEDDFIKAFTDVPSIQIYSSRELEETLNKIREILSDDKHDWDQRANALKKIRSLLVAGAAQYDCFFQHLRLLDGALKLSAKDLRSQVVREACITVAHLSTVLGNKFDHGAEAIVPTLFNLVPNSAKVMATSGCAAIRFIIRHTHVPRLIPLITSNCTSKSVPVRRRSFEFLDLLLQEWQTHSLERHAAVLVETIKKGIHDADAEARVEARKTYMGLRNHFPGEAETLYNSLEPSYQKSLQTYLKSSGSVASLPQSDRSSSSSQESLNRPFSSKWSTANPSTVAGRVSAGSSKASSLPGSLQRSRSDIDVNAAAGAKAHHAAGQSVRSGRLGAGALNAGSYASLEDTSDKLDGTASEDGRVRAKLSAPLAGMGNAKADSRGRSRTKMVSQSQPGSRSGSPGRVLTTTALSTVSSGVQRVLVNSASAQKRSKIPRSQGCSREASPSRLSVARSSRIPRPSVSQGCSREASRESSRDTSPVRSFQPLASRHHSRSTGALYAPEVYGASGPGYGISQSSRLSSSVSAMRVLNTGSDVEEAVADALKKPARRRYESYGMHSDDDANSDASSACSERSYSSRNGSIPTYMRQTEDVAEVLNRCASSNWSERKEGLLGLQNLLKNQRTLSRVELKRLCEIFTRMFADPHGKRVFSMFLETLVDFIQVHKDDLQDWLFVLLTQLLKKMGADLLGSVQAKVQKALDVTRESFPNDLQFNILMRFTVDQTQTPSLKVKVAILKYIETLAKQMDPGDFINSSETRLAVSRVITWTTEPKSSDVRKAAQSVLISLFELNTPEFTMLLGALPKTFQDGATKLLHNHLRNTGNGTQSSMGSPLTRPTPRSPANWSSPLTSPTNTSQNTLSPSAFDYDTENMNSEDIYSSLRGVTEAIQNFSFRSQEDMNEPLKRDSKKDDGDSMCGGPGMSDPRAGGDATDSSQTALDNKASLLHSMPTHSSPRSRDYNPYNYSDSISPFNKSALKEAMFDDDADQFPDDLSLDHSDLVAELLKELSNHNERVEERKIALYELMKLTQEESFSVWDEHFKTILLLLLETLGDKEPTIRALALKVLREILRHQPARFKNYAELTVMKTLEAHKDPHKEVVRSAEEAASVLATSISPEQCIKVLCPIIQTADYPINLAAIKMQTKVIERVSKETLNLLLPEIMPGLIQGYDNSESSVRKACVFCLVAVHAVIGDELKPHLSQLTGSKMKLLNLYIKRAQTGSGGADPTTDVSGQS
# UniProt Q9Y6H1: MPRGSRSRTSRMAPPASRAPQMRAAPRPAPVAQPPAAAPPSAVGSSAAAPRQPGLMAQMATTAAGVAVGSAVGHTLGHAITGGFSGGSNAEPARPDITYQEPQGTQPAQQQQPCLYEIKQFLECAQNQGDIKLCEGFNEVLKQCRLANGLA
# UniProt Q8N668, whole entry: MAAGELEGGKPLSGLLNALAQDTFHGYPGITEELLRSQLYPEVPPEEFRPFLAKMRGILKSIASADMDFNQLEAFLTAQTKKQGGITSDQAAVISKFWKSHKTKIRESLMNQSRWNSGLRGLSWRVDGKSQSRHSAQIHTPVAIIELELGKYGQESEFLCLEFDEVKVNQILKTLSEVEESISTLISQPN
# Compound: COc1ccc(Cn2ccc3ccc(C(=O)NO)cc32)cc1
# Assay: dose-dependent thermal stabilisation call (2D-TPP, DLPTP, 10% FDR) (binary (1 = stabilised)); higher = stabilised by the compound
# Details: system: HL-60 intact cells; concentration range 0.04-10 µM
row,Target,dose-dependent thermal stabilisation call
1,CLASP1 (UniProt Q7Z460),inactive: 0
2,CHN1 (UniProt P15882),inactive: 0
3,CCDC127 (UniProt Q96BQ5),inactive: 0
4,CCDC134 (UniProt Q9H6E4),inactive: 0
5,CCDC55 (UniProt Q9H0G5),inactive: 0
6,CCDC51 (UniProt Q96ER9),inactive: 0
7,CCDC117 (UniProt Q8IWD4),inactive: 0
8,CISD2 (UniProt Q8N5K1),inactive: 0
9,CDKN2AIP (UniProt Q9NXV6),inactive: 0
10,CDC2 (UniProt P06493),inactive: 0
11,CD4 (UniProt P01730),inactive: 0
12,CLTC (UniProt Q00610),inactive: 0
13,CETN3 (UniProt O15182),inactive: 0
14,CCDC88A (UniProt Q3V6T2),inactive: 0
15,CEP63 (UniProt Q96MT8),inactive: 0
16,CNOT4 (UniProt O95628),inactive: 0
17,CDC37L1 (UniProt Q7L3B6),inactive: 0
18,CLIC1 (UniProt O00299),inactive: 0
19,CHMP6 (UniProt Q96FZ7),inactive: 0

row,Target,dose-dependent thermal stabilisation call
1,CENPF (UniProt P49454),inactive: 0
2,CDCA2 (UniProt Q69YH5),inactive: 0
3,CCDC109B (UniProt Q9NWR8),inactive: 0
4,CCDC132 (UniProt Q96JG6),inactive: 0
5,CIAO1 (UniProt O76071),inactive: 0
6,CLEC5A (UniProt Q9NY25),inactive: 0
7,CNO (UniProt Q9NUP1),inactive: 0
8,CHKA (UniProt P35790),inactive: 0
9,CCDC93 (UniProt Q567U6),active: 1
10,CCBL1 (UniProt Q16773),inactive: 0
11,CHML (UniProt P26374),inactive: 0
12,CD81 (UniProt P60033),inactive: 0
13,CHD6 (UniProt Q8TD26),inactive: 0
14,CD99L2 (UniProt Q8TCZ2),inactive: 0
15,CLASP2 (UniProt O75122),inactive: 0
16,CCDC61 (UniProt Q9Y6R9),inactive: 0
17,CHCHD2 (UniProt Q9Y6H1),inactive: 0
18,COMMD1 (UniProt Q8N668),inactive: 0

# A portion of the results above, as a working copy:
row,Target,dose-dependent thermal stabilisation call
11,CHML (UniProt P26374),inactive: 0
12,CD81 (UniProt P60033),inactive: 0
13,CHD6 (UniProt Q8TD26),inactive: 0
14,CD99L2 (UniProt Q8TCZ2),inactive: 0
15,CLASP2 (UniProt O75122),inactive: 0
16,CCDC61 (UniProt Q9Y6R9),inactive: 0
17,CHCHD2 (UniProt Q9Y6H1),inactive: 0
18,COMMD1 (UniProt Q8N668),inactive: 0

# Reference: the supplement of paper PMC7666118
